This data set is described as follows: Fmoc solid-phase peptide synthesis; 4-(2′-4′-dimethoxyphenyl)-Fmoc aminomethyl phenoxy acetamide norleucine MBHA resin; HBTU (Fast Moc). The following applies: whole synthesis.

For “Ala Gly Glu Gly Thr Phe Thr Ser Asp Leu Ser Lys Gln Leu Glu Glu Glu Ala Val Arg Leu Phe Ile Glu Phe Leu Lys Asn-NH2”, the “crude purity (method not given)” value is reported as “about 75%”.

The values above are taken from patent publication US7220721B1 (Amylin Pharmaceuticals, Inc., priority 1997, dated 2007).
